Results reported in PubChem BioAssay AID540276 (National Center for Advancing Translational Sciences (NCATS), 2011).
In all, about 300,000 compounds went through this assay and about 5,400 (1.8%) were called active. Inconclusive means that the source gave no clear call. Such entries were picked first, then a sample of the others. Calls come from the whole dose curve; tested in HEK293 cells. Potencies of inconclusive entries are doubtful fits and often do not repeat.

Test: qHTS for inhibitors of binding or entry into cells for Marburg Virus
Conditions: Marburg virus pseudotyped entry inhibition, cell reporter; activity change, negative = inhibition: at 37.8 µM (top of the series) unless noted
% is set by controls: 0 for no effect and ±100 for the full control effect; potency is the fitted concentration of half-maximal effect.

Row | Structure (SMILES) | activity change, negative = inhibition | Potency
1 | COc1cc(C2CC(=O)N(CC(=O)NCC3CCCO3)c3ccccc3S2)cc(OC)c1OC (configuration not stated) | inactive: 11.2% [at 46.1 µM] | 
2 | N#C/C(=C\c1ccc(N2CCOCC2)o1)C(=O)Nc1ccc(O)cc1 |  | inconclusive: 11.2 µM [inhibitor, partial curve, poor fit]
3 | COC(=O)c1ccc2c(=O)[nH]c(CSc3nc(C)cs3)nc2c1 |  | inconclusive: 14.1 µM [activator, single point]
4 | CCOC(=O)c1c(NC(=O)C(C)Sc2cn(CCNC(=O)c3ccc(OC)c(OC)c3)c3ccccc23)sc2c1CCC2 (configuration not stated) |  | inconclusive: 3.16 µM [inhibitor, single point]
5 | Cc1ccc(N=Nc2c(N)nn3c(C)cc(C)nc23)cc1 | inactive: -3.8% | 
6 | CCc1nnc(NC(=O)CSc2nc3[nH]ncc3c(=O)[nH]2)s1 |  | inconclusive: 6.31 µM [activator, single point]
7 | COc1ccc(NC(=O)CN(C)C(=O)c2cccc(S(=O)(=O)Nc3ccccc3Cl)c2)cc1 | inactive: 7.66% | 
8 | C=CCNC(=S)N/N=C/c1ccc(C(C)(C)C)cc1 |  | inconclusive: 35.5 µM [inhibitor, single point]
9 | CCC(=O)c1ccc(OCC(=O)OCC(=O)c2c(N)n(C)c(=O)n(C)c2=O)cc1 | inactive: 13.7% | 
10 | CCCN(CCC)Cc1c(C(=O)N/N=C/C(C)=C\c2ccccc2)nnn1-c1nonc1N |  | inconclusive: 11.2 µM [inhibitor, partial curve, poor fit]
11 | CCc1nc(SCC(=O)NNC(=O)c2ccc(OC)cc2)c2ccccc2n1 | inactive: -27.5% [at 46.1 µM] | 
12 | CN1C(=O)/C(=C/c2ccccc2OCc2ccccc2)NC1=S |  | inconclusive: 1.26 µM [inhibitor, single point]
13 | Cn1nnnc1SCc1ccc([N+](=O)[O-])cc1 | inactive: 3% | 
14 | CC(NC(=O)CCc1nnc(-c2ccc(-c3ccccc3)cc2)o1)c1nc2ccccc2[nH]1 (configuration not stated) |  | inconclusive: 35.5 µM [inhibitor, single point]
15 | O=C(Nc1ccc(F)c(F)c1)c1oc2ccccc2c1NC(=O)C1CCCO1 (configuration not stated) | inactive: 0.717% [at 46.1 µM] | 
16 | COC(=O)c1c(-c2c(Cl)cccc2Cl)noc1NC(=O)NN1CCCCC1 |  | inconclusive: 35.5 µM [inhibitor, single point]
17 | Cc1ccc(NC(=O)Cn2c(=O)n(CCC(=O)NCCc3ccccc3)c(=O)c3ccccc32)cc1 | inactive: 8.98% [at 46.1 µM] | 
18 | Cc1cc(C)n2nc(N)c(N=Nc3ccc4c(c3)OCO4)c2n1 |  | inconclusive: 3.66 µM [inhibitor, full curve]
19 | CCN1C(=O)c2cccc3c(NC(=O)C4CCCCC4)ccc1c23 |  | inconclusive: 1.03 µM [inhibitor, partial curve, poor fit]
20 | O=C(CCc1ccccc1)OCCN1CCOCC1 | inactive: 1.16% | 
21 | Cc1ccc(NC(=O)C2COc3ccccc3O2)c(C)c1 (configuration not stated) |  | inconclusive: 12.6 µM [activator, single point]
22 | CCC(=O)Nc1nnc(-c2ccccn2)o1 |  | inconclusive: 4.47 µM [activator, full curve]
23 | Cc1ccc(Cl)cc1N1CCN(C(=O)c2cn(C)c3ccc(S(=O)(=O)N(C)C4CCCCC4)cc3c2=O)CC1 |  | inconclusive: 35.5 µM [activator, single point]
24 | CCOC(=O)CN1C(=O)N(CC(=O)OCC)C(c2ccccc2)(c2ccccc2)C1=O |  | inconclusive: 22.4 µM [inhibitor, single point]

Row | Structure (SMILES) | activity change, negative = inhibition | Potency
25 | O=[N+]([O-])c1cc(Br)ccc1C[n+]1ccccc1 |  | inconclusive: 0.708 µM [inhibitor, full curve]
26 | COc1ccccc1C(=O)NC(=S)Nc1cccnc1Cl |  | inconclusive: 10 µM [inhibitor, single point]
27 | Cc1ccc[n+](CC(=O)c2ccc(-c3ccccc3)cc2)c1 | inactive: -11.7% | 
28 | CCN(CC)CCCC(C)Nc1nccc2cccc(Cl)c12 (configuration not stated) |  | inconclusive: 22.4 µM [inhibitor, single point]
29 | CC(Sc1n[nH]c(N)n1)c1nc2scc(-c3cccs3)c2c(=O)[nH]1 (configuration not stated) |  | inconclusive: 35.5 µM [inhibitor, single point]
30 | COc1cccc(-c2nnc(SCc3nc4ccccc4s3)n2C)c1 |  | inconclusive: 0.316 µM [activator, partial curve, poor fit]
31 | Cc1occc1C(=O)/C(C#N)=C/c1ccc(O)c(Br)c1 | inactive: 2.53% [at 46.1 µM] | 
32 | CC(OC(=O)CCc1cc(C(C)(C)C)c(O)c(C(C)(C)C)c1)C(=O)NC1CC1 (configuration not stated) |  | inconclusive: 22.4 µM [inhibitor, single point]
33 | Cc1ccsc1/C=C/C(=O)O |  | inconclusive: 0.708 µM [activator, single point]
34 | Cc1ccc2nsnc2c1S(=O)(=O)N1CCN(C)CC1 | inactive: -9.16% [at 46.1 µM] | 
35 | Cc1ccc(NC(=S)NNC(C)(C)C)cc1 |  | inconclusive: 1 µM [activator, full curve, poor fit]
36 | S=C(NCCC1=CCCCC1)Nc1ccc(Cl)cc1 |  | inconclusive: 31.6 µM [activator, single point]
37 | COC(=O)c1[nH]c(C)c(/C(O)=C2\C(=O)C(=O)N(CCN3CCOCC3)C2c2ccccc2OC)c1C (configuration not stated) | inactive: 14.3% | 
38 | Cc1ccc(OCC(=O)Nc2cc(S(=O)(=O)N3CCCCC3)ccc2N2CCN(C)CC2)c(C)c1 |  | inconclusive: 12.6 µM [inhibitor, partial curve, poor fit]
39 | CC(C(=O)Nc1ccncc1)(c1ccccc1)c1ccccc1 | inactive: 12.8% | 
40 | O=C(N/N=C/c1cn[nH]c1-c1ccccc1)c1ccco1 |  | inconclusive: 3.16 µM [inhibitor, single point]
41 | Cc1[nH]c2ccccc2c1Cc1n[nH]c(=S)n1C | inactive: 7.4% | 
42 | CCn1ncc(C(=O)Nc2ccccc2C)c1C |  | inconclusive: 6.31 µM [activator, single point]
43 | COc1ccc2c(c1)SCC(=O)N2C | inactive: -6.25% | 
44 | C/C(=N\NC(=S)Nc1ccccc1)c1c(O)n(C)c(=O)n(C)c1=O | inactive: 3.48% | 
45 | CC1(C)CC(=O)C=C(N2CCN(C3=CC(=O)CC(C)(C)C3)CC2)C1 | inactive: 2.4% | 
46 | CC1(OC(=O)c2cccs2)C(=O)C=C2C=C3CCCN3C=C2C1=O (configuration not stated) |  | inconclusive: 3.35 µM [inhibitor, partial curve, poor fit]
47 | COc1cc(SC)ccc1C(=O)Nc1c(C)cccc1C |  | inconclusive: 1.12 µM [inhibitor, partial curve, poor fit]
48 | CCOC(=O)c1c(C)oc2c1c(CN1CCN(C(=O)OCC)CC1)c(O)c1ccccc12 | inactive: -0.949% | 

Structures from the list above with bromine:
Row | Structure (SMILES) | activity change, negative = inhibition | Potency
25 | O=[N+]([O-])c1cc(Br)ccc1C[n+]1ccccc1 |  | inconclusive: 0.708 µM [inhibitor, full curve]
31 | Cc1occc1C(=O)/C(C#N)=C/c1ccc(O)c(Br)c1 | inactive: 2.53% [at 46.1 µM] | 

Continued.

Row | Structure (SMILES) | activity change, negative = inhibition | Potency
49 | COc1cccc(CC2(CO)CCCN(Cc3cn[nH]c3-c3cc(C)ccc3C)C2)c1 (configuration not stated) |  | inconclusive: 10 µM [inhibitor, partial curve, poor fit]
50 | COc1ccccc1NS(=O)(=O)c1cc(C(=O)Nc2ccc(S(=O)(=O)Nc3onc(C)c3C)cc2)ccc1C |  | inconclusive: 35.5 µM [activator, single point]
51 | CCC(N=c1cc(-c2ccc(OC)cc2)oc2ccc(C)cc12)C(=O)O (configuration not stated) |  | inconclusive: 1.41 µM [activator, partial curve, poor fit]
52 | O=C(OCC(=O)N1CCOCC1)c1ccc[nH]c1=O | inactive: -10.6% | 
53 | COC(=O)c1cccc(-n2c(C)cc(C=O)c2C)c1C |  | inconclusive: 35.5 µM [inhibitor, single point]
54 | COc1ccc(CNC(=O)COC(=O)c2cc(S(=O)(=O)N3CCOCC3)ccc2O)cc1OC | inactive: 3.44% | 
55 | Cc1cc(C)cc(OCc2cc(=O)n3cc(C)sc3n2)c1 | inactive: -4.09% [at 46.1 µM] | 
56 | CC(=O)Nc1c(C(=O)O)oc2ccccc12 | inactive: 15% | 
57 | Cc1ccc(NC(=O)COC(=O)C2(CC(=O)NC(C)(C)C)CCCC2)cc1C |  | inconclusive: 25.1 µM [inhibitor, single point]
58 | COCC(C)N1C(=O)Cc2c1nc(N)c1c(N)nc(N3CCN(c4ccccc4F)CC3)c(C#N)c21 (configuration not stated) |  | active: 16.4 µM
59 | N#C/C(=C\c1ccc(Sc2nc3ccccc3[nH]2)o1)c1ccccc1 |  | inconclusive: 17.8 µM [inhibitor, single point]
60 | Cc1ccc(CNC(=O)c2nn(C)c(C)c2[N+](=O)[O-])cc1 | inactive: 9.78% | 
61 | O=C(c1cc(-c2ccccc2)nc2ccccc12)N1CCN(c2ccccn2)CC1 |  | inconclusive: 0.146 µM [inhibitor, full curve, poor fit]
62 | CCOC(=O)C1(Cc2cccc(F)c2)CCN(Cc2cnn(CC)c2C)CC1 |  | inconclusive: 25.1 µM [inhibitor, single point]
63 | COc1ccccc1NC(=O)CCn1nc(-c2ccccc2)c2ccccc2c1=O |  | inconclusive: 17.8 µM [inhibitor, single point]
64 | COc1ccccc1C(CNC(=O)CNC(=O)c1cccc(Cl)c1)N1CCCC1 (configuration not stated) |  | active: 7.08 µM
65 | COc1ccc(-c2nn(-c3ccccc3)cc2CNCCN2CCOC2=O)c(F)c1 |  | inconclusive: 11.2 µM [inhibitor, partial curve, poor fit]
66 | CCc1ccc(OCC(=O)N(Cc2ccco2)Cc2ccco2)cc1 | inactive: -7.62% [at 46.1 µM] | 
67 | Cc1ccc(-c2sc(C(=O)NN)c(C)c2C#N)cc1 |  | inconclusive: 35.5 µM [inhibitor, single point]
68 | COc1ccc2c(c1)[nH]c1c(=O)n(/N=C/c3ccc(OC)c(COc4ccccn4)c3)cnc12 | inactive: -1.91% | 
69 | CCOc1ccc(S(=O)(=O)NCc2ccccc2)cc1C(N)=O |  | inconclusive: 11.2 µM [inhibitor, partial curve, poor fit]
70 | Cc1ccc(S(=O)(=O)/C(C#N)=C/c2c(N3CCOCC3)nc3c(C)cccn3c2=O)cc1 | inactive: -9.19% | 
71 | NC(=O)N/N=C/c1ccc(-n2nncc2-c2ccc(Cl)cc2)cc1 |  | inconclusive: 35.5 µM [inhibitor, single point]
72 | Cc1cccnc1NC(=O)C(C)N1C(=O)c2ccccc2C1=O (configuration not stated) |  | inconclusive: 5.62 µM [inhibitor, partial curve, poor fit]

From compound 56 as far as 58, copied from above:
Row | Structure (SMILES) | activity change, negative = inhibition | Potency
56 | CC(=O)Nc1c(C(=O)O)oc2ccccc12 | inactive: 15% | 
57 | Cc1ccc(NC(=O)COC(=O)C2(CC(=O)NC(C)(C)C)CCCC2)cc1C |  | inconclusive: 25.1 µM [inhibitor, single point]
58 | COCC(C)N1C(=O)Cc2c1nc(N)c1c(N)nc(N3CCN(c4ccccc4F)CC3)c(C#N)c21 (configuration not stated) |  | active: 16.4 µM
